PubChem BioAssay AID1224830, NIAID | 2016
Aim: 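Genes whose knock-down alters the TNF-alpha reporter response to LPS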 (primary screen). System: human THP-1 monocytic leukaemia cells, TNF dual-luciferase reporter clone, PMA-differentiated to macrophage-like cells. Reagent: siRNA pool against human genes, 50 nM. Timing: LPS for 4 h, given about 3 days after siRNA transfection. Challenge: bacterial LPS (TLR4 ligand), 10 ng/ml. Read-out: 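TNF firefly reporter luminescence divided by renilla, normalised to the plate median, then turned into a robust z-score for each replicate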. Scale: TNF reporter robust z-score: higher = stronger TNF reporter response to LPS. Hit rule: 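a well is active when its z-score exceeds 2.8 or falls below -1.5; control wells carry no call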.
In all, the deposit lists about 18,000 reagents; shown is a random part of them. About 2,900 of them (16%) count as active. 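Calls are made per well; low scores hint the gene aids the LPS response, high scores that it dampens it.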 Repeated entries: four replicate wells of each siRNA pool. Reagent sequences are not shown.

The first 11 entries as a preview:
| target gene | TNF reporter robust z-score | Call |
| --- | --- | --- |
| OR1A2 | 1.45 | inactive |
| OR1A2 | 2.48 | inactive |
| OR1A2 | 0.53 | inactive |
| OR1A2 | 2.55 | inactive |
| SLC10A4 | -0.36 | inactive |
| SLC10A4 | 0.22 | inactive |
| SLC10A4 | 1.22 | inactive |
| SLC10A4 | 0.84 | inactive |
| DIP2C | 0.72 | inactive |
| DIP2C | 0.09 | inactive |
| DIP2C | 0.8 | inactive |

Results, from the start:
| target gene | TNF reporter robust z-score | Call |
| --- | --- | --- |
| OR1A2 | 1.45 | inactive |
| OR1A2 | 2.48 | inactive |
| OR1A2 | 0.53 | inactive |
| OR1A2 | 2.55 | inactive |
| SLC10A4 | -0.36 | inactive |
| SLC10A4 | 0.22 | inactive |
| SLC10A4 | 1.22 | inactive |
| SLC10A4 | 0.84 | inactive |
| DIP2C | 0.72 | inactive |
| DIP2C | 0.09 | inactive |
| DIP2C | 0.8 | inactive |
| DIP2C | 1.04 | inactive |
| NDOR1 | -1.01 | inactive |
| NDOR1 | -0.62 | inactive |
| NDOR1 | -0.69 | inactive |
| NDOR1 | -0.53 | inactive |
| BRK1 | 0.86 | inactive |
| BRK1 | 2.47 | inactive |
| BRK1 | 0.65 | inactive |
| BRK1 | 1.94 | inactive |
| GOLGA8G | -0.52 | inactive |
| GOLGA8G | 0.16 | inactive |
| GOLGA8G | 0 | inactive |
| GOLGA8G | 1.23 | inactive |
| OR6X1 | -0.39 | inactive |
| OR6X1 | 0.87 | inactive |
| OR6X1 | -1.12 | inactive |
| OR6X1 | -0.12 | inactive |
| GOLGA6B | -0.31 | inactive |
| GOLGA6B | 0.64 | inactive |
| GOLGA6B | 1.77 | inactive |
| GOLGA6B | -0.94 | inactive |
| LRRC42 | -1.1 | inactive |
| LRRC42 | 0.46 | inactive |
| LRRC42 | -1.05 | inactive |
| LRRC42 | -1.02 | inactive |
| ART3 | -1.52 | active |
| ART3 | -1.43 | inactive |
| ART3 | -1.26 | inactive |
| ART3 | -1.47 | inactive |
| WDR49 | -0.17 | inactive |
| WDR49 | -0.3 | inactive |
| WDR49 | -0.25 | inactive |
| WDR49 | -0.35 | inactive |
| PARM1 | 0.67 | inactive |
| PARM1 | 0.78 | inactive |
| PARM1 | 0.48 | inactive |
| PARM1 | 2.35 | inactive |
| ABCC4 | 0.79 | inactive |
| ABCC4 | 1 | inactive |
| ABCC4 | 1.09 | inactive |
| ABCC4 | 1.83 | inactive |
| MICU2 | 0.28 | inactive |
| MICU2 | 0.65 | inactive |
| MICU2 | 1.07 | inactive |
| MICU2 | 2.17 | inactive |
| OR13J1 | -0.95 | inactive |
| OR13J1 | -0.19 | inactive |
| OR13J1 | -0.01 | inactive |
| OR13J1 | 0.32 | inactive |
| CPNE6 | 0.32 | inactive |
| CPNE6 | 0.71 | inactive |
| CPNE6 | 0.8 | inactive |
| CPNE6 | -0.21 | inactive |
| THNSL1 | -0.95 | inactive |
| THNSL1 | -0.85 | inactive |
| THNSL1 | -0.75 | inactive |
| THNSL1 | -0.72 | inactive |
| NCAPG | 1.78 | inactive |
| NCAPG | -0.51 | inactive |
| NCAPG | 0.4 | inactive |
| NCAPG | 2.37 | inactive |
| OR4D2 | 3.02 | active |
| OR4D2 | 2.72 | inactive |
| OR4D2 | 2.27 | inactive |
| OR4D2 | 2.74 | inactive |
| IER5 | -0.7 | inactive |
| IER5 | 0.49 | inactive |
| IER5 | 0.41 | inactive |
| IER5 | 0.15 | inactive |
| TTLL1 | 1.84 | inactive |
| TTLL1 | 2.02 | inactive |
| TTLL1 | 1.75 | inactive |
| TTLL1 | 2.2 | inactive |
| VPS29 | -0.32 | inactive |
| VPS29 | 0.06 | inactive |
| VPS29 | -0.48 | inactive |
| VPS29 | 0.76 | inactive |
| NRG4 | -0.72 | inactive |
| NRG4 | -0.94 | inactive |
| NRG4 | -1.2 | inactive |
| NRG4 | -1.05 | inactive |
| LCE4A | 0.89 | inactive |
| LCE4A | -1.02 | inactive |
| LCE4A | -0.54 | inactive |
| LCE4A | 0.07 | inactive |
| ZNF140 | 0.59 | inactive |
| ZNF140 | 1.13 | inactive |
| ZNF140 | 1.08 | inactive |
| ZNF140 | 1.4 | inactive |
| ZNF408 | 0.4 | inactive |
| ZNF408 | 0.14 | inactive |
| ZNF408 | -0.43 | inactive |
| ZNF408 | 0.54 | inactive |
| SLC12A4 | -0.88 | inactive |
| SLC12A4 | 0.11 | inactive |
| SLC12A4 | -0.24 | inactive |
| SLC12A4 | 0.46 | inactive |
| CNKSR1 | 0.89 | inactive |
| CNKSR1 | 1.68 | inactive |
| CNKSR1 | 1.45 | inactive |
| CNKSR1 | 1.55 | inactive |
